The structures appear in SMILES notation. pIC50: −log10 of the molar value. The structures given here were assigned with low confidence; some may be wrong.

Chains of the proteins cited; added tags and fusions are not shown. Residues count along the entry.
UniProt Q7Z5P4, 20-300 limits assumed: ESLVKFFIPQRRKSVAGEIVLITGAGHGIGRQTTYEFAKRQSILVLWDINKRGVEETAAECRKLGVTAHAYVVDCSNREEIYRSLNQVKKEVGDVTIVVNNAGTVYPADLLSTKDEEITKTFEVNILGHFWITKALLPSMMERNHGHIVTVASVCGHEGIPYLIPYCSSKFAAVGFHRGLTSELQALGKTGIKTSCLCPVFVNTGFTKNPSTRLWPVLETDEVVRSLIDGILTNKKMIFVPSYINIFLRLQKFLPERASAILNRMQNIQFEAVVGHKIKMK

In this test the target is Recombinant human HSD17B13 enzyme (Homo sapiens, UniProt Q7Z5P4). Briefly: HSD17b13 NAD(P)H-Glo biochemical assay. As to conditions: read-out: HSD17β13 IC50; 50 uM estradiol, 1 mM NAD+, NAD(P)H-Glo luminescence. The method, then: Example B-1: HSD17b13 NAD(P)H-Glo Biochemical Assay
Recombinant human HSD17B13 enzyme. Substrate: estradiol (Sigma β-Estradiol E8875), 100 mM in DMSO. Cofactor: NAD+ Grade I free acid (Sigma 10127965001), 20 mM in H2O. Assay buffer final concentration: 20 mM Tris pH7.4 with 0.002% Tween-20 and 0.02% BSA. Assay performed in 384 well solid bottom plate (Corning 3570). Enzymatic activity detected by NAD(P)H-Glo™ Detection System (Promega G9062).
Inhibitor compounds were serially diluted in DMSO and then further diluted in assay buffer to a 10× concentration consisting of 1% DMSO.
HSD17b13 enzyme was diluted in 1× assay buffer to the desired enzyme concentration based on the specific activity of the enzyme lot. 20 uL of diluted enzyme was added to each well along with 2.5 uL of 10× inhibitor solution. Assay plate was incubated at RT for 20 minutes, and then 2.5 uL of a 10× substrate/cofactor mix was added to each well for a final concentration of 50 uM estradiol and 1 mM NAD+. Assay plate was incubated at 37° C. for 3 hours. NAD(P)H-Glo™ Detection System reagents were prepared according to manufacturer's specifications, and 25 uL was added to each well. After incubating for 1 hour at RT, luminescence was measured.

A word on the pIC50: it is the negative decadic logarithm of the IC50, by convention in mol/L. Consider `Oc1c(F)cc2cnn(-c3ccc(N4CC5(COC5)C4)cc3)c2c1F`, for which the pIC50 is 6.00 to 7.00.

Values taken from patent publication US20240083853A1, “HSD17B13 INHIBITORS AND USES THEREOF” (FL2022-001, Inc., priority 2020, published 2024).
